PubChem BioAssay AID504764, Drosophila RNAi Screening Center | 2011

Purpose: 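Genome-wide screen for regulators of Notch-driven gene expression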 (primary screen)
Cell system: Drosophila Kc167 cells
Knock-down reagent: long dsRNA against Drosophila genes
Duration: about 5 days (4 days dsRNA, then 24 h after transfection)
Conditions: transfection of constitutively active membrane-tethered Notch lacking the extracellular domain, read 24 h later
Detection: 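Light from a Notch-responsive E(spl)m3 luciferase reporter under active Notch, with control-promoter and no-Notch reporter wells to normalise; raw counts from paired wells a and b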
Direction: induced reporter light, run 1, well a and induced reporter light, run 1, well b: higher = more light from the Notch target reporter with active Notch; control promoter light, run 1, well a and control promoter light, run 1, well b: higher = more light from the viral control promoter (cell number, transfection, viability); uninduced reporter light, run 1, well a: higher = more light from the Notch target reporter without active Notch
Hit rule: 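Hit if the duplicate-averaged log2 ratio of induced to control-promoter light gives a plate-wise z beyond ±2, or induced to uninduced beyond ±1.8; weak-control or discordant-duplicate wells dropped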
Meaning of the calls: active = modifier hit (raised or lowered Notch signal); inactive = not a hit
In all, the deposit lists about 22,000 reagents; shown is a random part of those with a known target gene and a result. Of all reagents, 403 (1.9%) were called active. 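Unnormalised raw counts per well; ratio z-scores behind the hit calls and whether each hit raises or lowers signal are not deposited.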 Not stated in the record: the amount of reagent.

For Pcl [SID104187295], what does the deposit list?
induced reporter light, run 1, well a: 83545; induced reporter light, run 1, well b: 87415; control promoter light, run 1, well a: 1.74e5; control promoter light, run 1, well b: 2.11e5; uninduced reporter light, run 1, well a: 6950; Call: inactive

Which result is listed for CG31741 [SID104182679]?
induced reporter light, run 1, well a: 1.20e5; induced reporter light, run 1, well b: 1.28e5; control promoter light, run 1, well a: 1.78e5; control promoter light, run 1, well b: 1.97e5; uninduced reporter light, run 1, well a: 9088; Call: active

How did the screen score CG14982 [SID104188232]?
induced reporter light, run 1, well a: 17275; induced reporter light, run 1, well b: 15565; control promoter light, run 1, well a: 16175; control promoter light, run 1, well b: 17865; uninduced reporter light, run 1, well a: 3160; Call: inactive

What did the screen give for heca [SID104196756]?
induced reporter light, run 1, well a: 30640; induced reporter light, run 1, well b: 28685; control promoter light, run 1, well a: 31005; control promoter light, run 1, well b: 30580; uninduced reporter light, run 1, well a: 5345; Call: inactive

For CG11594 [SID104187999], what does the deposit list?
induced reporter light, run 1, well a: 1.47e5; induced reporter light, run 1, well b: 1.17e5; control promoter light, run 1, well a: 84155; control promoter light, run 1, well b: 34995; uninduced reporter light, run 1, well a: 10105; Call: inactive

With CG8191 [SID104199883], what was measured?
induced reporter light, run 1, well a: 77560; induced reporter light, run 1, well b: 85330; control promoter light, run 1, well a: 88740; control promoter light, run 1, well b: 76225; uninduced reporter light, run 1, well a: 11965; Call: inactive

With CG42713 [SID104180842], how do the results read?
induced reporter light, run 1, well a: 1.38e5; induced reporter light, run 1, well b: 1.41e5; control promoter light, run 1, well a: 2.63e5; control promoter light, run 1, well b: 1.94e5; uninduced reporter light, run 1, well a: 10275; Call: inactive

For CG9393 [SID104196278], how do the results read?
induced reporter light, run 1, well a: 1.22e5; induced reporter light, run 1, well b: 1.31e5; control promoter light, run 1, well a: 1.31e5; control promoter light, run 1, well b: 1.15e5; uninduced reporter light, run 1, well a: 9605; Call: inactive

With mRpS31 [SID104190348], what was measured?
induced reporter light, run 1, well a: 1.74e5; induced reporter light, run 1, well b: 2.25e5; control promoter light, run 1, well a: 1.31e5; control promoter light, run 1, well b: 1.10e5; uninduced reporter light, run 1, well a: 13705; Call: inactive

For Nlp [SID104196551], what does the deposit list?
induced reporter light, run 1, well a: 64775; induced reporter light, run 1, well b: 96105; control promoter light, run 1, well a: 87445; control promoter light, run 1, well b: 83635; uninduced reporter light, run 1, well a: 6245; Call: inactive

With CG15594 [SID104192072], what was measured?
induced reporter light, run 1, well a: 1.13e5; induced reporter light, run 1, well b: 95600; control promoter light, run 1, well a: 1.08e5; control promoter light, run 1, well b: 91925; uninduced reporter light, run 1, well a: 8710; Call: inactive

Entries listed so far marked active:
CG31741 [SID104182679]: induced reporter light, run 1, well a = 1.20e5; induced reporter light, run 1, well b = 1.28e5; control promoter light, run 1, well a = 1.78e5; control promoter light, run 1, well b = 1.97e5; uninduced reporter light, run 1, well a = 9088; Call = active

The list goes on:
For Ir76a [SID104190779], how do the results read?
induced reporter light, run 1, well a: 1.50e5; induced reporter light, run 1, well b: 1.41e5; control promoter light, run 1, well a: 83370; control promoter light, run 1, well b: 86720; uninduced reporter light, run 1, well a: 11055; Call: inactive

With H2.0 [SID104183132], how do the results read?
induced reporter light, run 1, well a: 1.63e5; induced reporter light, run 1, well b: 1.41e5; control promoter light, run 1, well a: 1.87e5; control promoter light, run 1, well b: 1.89e5; uninduced reporter light, run 1, well a: 11415; Call: inactive

With PpV [SID104198492], what was measured?
induced reporter light, run 1, well a: 1.11e5; induced reporter light, run 1, well b: 1.25e5; control promoter light, run 1, well a: 2.06e5; control promoter light, run 1, well b: 2.31e5; uninduced reporter light, run 1, well a: 7692; Call: inactive

Which result is listed for Cyp4p1 [SID104187164]?
induced reporter light, run 1, well a: 1.83e5; induced reporter light, run 1, well b: 1.86e5; control promoter light, run 1, well a: 2.69e5; control promoter light, run 1, well b: 2.40e5; uninduced reporter light, run 1, well a: 18332; Call: inactive

With CG17129 [SID104188300], what was measured?
induced reporter light, run 1, well a: 93945; induced reporter light, run 1, well b: 1.05e5; control promoter light, run 1, well a: 1.77e5; control promoter light, run 1, well b: 2.08e5; uninduced reporter light, run 1, well a: 7530; Call: inactive

For Mip [SID104190431], what was measured?
induced reporter light, run 1, well a: 40650; induced reporter light, run 1, well b: 34805; control promoter light, run 1, well a: 13242; control promoter light, run 1, well b: 18830; uninduced reporter light, run 1, well a: 6060; Call: inactive

With CG14708 [SID104194722], how do the results read?
induced reporter light, run 1, well a: 1.64e5; induced reporter light, run 1, well b: 1.56e5; control promoter light, run 1, well a: 1.73e5; control promoter light, run 1, well b: 1.53e5; uninduced reporter light, run 1, well a: 7755; Call: inactive

With CycE [SID104183087], how do the results read?
induced reporter light, run 1, well a: 1.96e5; induced reporter light, run 1, well b: 1.65e5; control promoter light, run 1, well a: 1.11e5; control promoter light, run 1, well b: 1.29e5; uninduced reporter light, run 1, well a: 15930; Call: inactive

With CycE [SID104183088], what was measured?
induced reporter light, run 1, well a: 96725; induced reporter light, run 1, well b: 1.12e5; control promoter light, run 1, well a: 81590; control promoter light, run 1, well b: 1.07e5; uninduced reporter light, run 1, well a: 8365; Call: inactive

With PIG-N [SID104186629], what does the deposit list?
induced reporter light, run 1, well a: 1.83e5; induced reporter light, run 1, well b: 1.75e5; control promoter light, run 1, well a: 1.98e5; control promoter light, run 1, well b: 1.73e5; uninduced reporter light, run 1, well a: 15015; Call: inactive

How did the screen score CG10064 [SID104189481]?
induced reporter light, run 1, well a: 1.86e5; induced reporter light, run 1, well b: 2.43e5; control promoter light, run 1, well a: 1.93e5; control promoter light, run 1, well b: 2.01e5; uninduced reporter light, run 1, well a: 9660; Call: inactive

How did the screen score CG13461 [SID104189800]?
induced reporter light, run 1, well a: 1.87e5; induced reporter light, run 1, well b: 1.52e5; control promoter light, run 1, well a: 1.71e5; control promoter light, run 1, well b: 1.80e5; uninduced reporter light, run 1, well a: 13150; Call: inactive

With Uch-L5R [SID104199617], what was measured?
induced reporter light, run 1, well a: 1.25e5; induced reporter light, run 1, well b: 1.29e5; control promoter light, run 1, well a: 2.39e5; control promoter light, run 1, well b: 2.47e5; uninduced reporter light, run 1, well a: 8725; Call: inactive
